Reference: PubChem BioAssay AID1471 (National Center for Advancing Translational Sciences (NCATS), 2008)
The whole screen tested about 230,000 compounds, of which about 310 (0.13%) were called active. Another 2% or so got no clear call; they are omitted. The call rests on the fitted dose curve; in most records, active means well fitted activation curve with a large enough effect; inconclusive means small, poorly fitted or top-dose-only effect; inactive means no such curve, though single readings can be large or run the other way. This is a selection; strong and weak results do not stand in their true shares. Where no call is shown, the source filed none. Some structures have more than one record in an assay (separate samples or runs), and their calls can disagree.

Test: qHTS Multiplex Assay to Identify Dual Action Probes in a Cell Model of Huntington: Cytoprotection (ATP); further: nearly all actives have a fitted effect of over 45% in size;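 on cytoprotection (ATP increase): toxic huntingtin expression switched on by the ecdysone agonist tebufenozide; % of control where 0% means no effect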
Settings: PC12 HTT-Q103 induced, ATP luminescence, 40 h; cytoprotection (ATP increase): at 56.4 µM (top of the series) unless noted
Procedure, shortened: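 Readout: ATPlite luminescence (ATP level). Model: stable PC12, inducible Htt exon1 Q103-GFP. Inducer: tebufenozide, 100 nM final. Compounds: dose series. No G418 in medium.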
Potency means the concentration at half of the fitted maximal effect.

Row | Compound | Potency | cytoprotection (ATP increase)
1 | COc1ccccc1Cn1c(=O)c2ccccc2n2c(Sc3ncnc4sccc34)nnc12 | active: 1.58 µM | 
2 | COc1cccc([C@@H]2Oc3ccc(OC)cc3C(=O)[C@H]2OC(=O)NC2CCCC2)c1 |  | -48.5%
3 | C1CCC(NC(=NC2C3CC4CC(C3)CC2C4)N2CCOCC2)CC1 (configuration not stated) |  | -55.1%
4 | CCCCCSc1nnc(-c2ccccc2NC(C)=O)c(=O)[nH]1 | active: 2.82 µM | 
5 | Cc1csc(NC(=O)[C@@H](NC(=O)c2ccccc2)C(C)C)n1 |  | 155% [at 10 µM]
6 | COc1ccc2[nH]c(-c3ccccc3)cc(=O)c2c1 |  | -335% [at 96.6 µM]
7 | Cc1ccccc1CN1CCN(CC(=O)NCc2ccccc2)C1=O | active: 4.47 µM | 
8 | CC(=O)N1CC[C@@H]2CC(=O)CC[C@@H]21 |  | -39.4% [at 96.6 µM]
9 | Cc1cccc(N2C(=O)CC(SC(=Nc3ccccc3)Nc3ccccc3)C2=O)c1 (configuration not stated) |  | 106% [at 10 µM]
10 | CCOC(=O)N1CCC(N2CCCC(CO)(Cc3cccc(OC)c3)C2)CC1 (configuration not stated) |  | 488% [at 10 µM]
11 | O=C(O)/C=C/C(O)c1ccc(Cl)cc1 (configuration not stated) | active: 3.16 µM | 
12 | O=C(Nc1cccnc1)Nc1ccccc1Cl | active: 0.794 µM | 
13 | Cc1ccccc1CNC(=O)c1ccccc1C(=O)O |  | 280% [at 1.9 µM]
14 | Cc1cc2c(cc1Cl)C(c1ccccc1C)CC(=O)O2 (configuration not stated) |  | -31.1%
15 | COc1cc(CNC(=O)CCCC/C=C/C(C)C)ccc1O |  | -54.3%
16 | COc1ccc2c(c1)C(=O)[C@@H](OC(=O)N[C@H](C)C1CCCCC1)[C@H](c1ccc(OC)c(Br)c1)O2 |  | -2.69%
17 | CC(C)c1ccccc1S(=O)(=O)c1cc(N)c2ncccc2c1[N+](=O)[O-] | active: 7.94 µM | 
18 | COCCCNS(=O)(=O)c1ccc2[nH]c(=O)[nH]c2c1 |  | 366% [at 10 µM]
19 | COc1ccc(C2/C=C\CC(NC(=O)OCC3c4ccccc4-c4ccccc43)CC(=O)N2Cc2ccccc2F)cc1 (configuration not stated) |  | -44.1% [at 40.3 µM]
20 | O=C1c2ccccc2C(=O)c2c(O)c(O)cc(O)c21 |  | -30.1%
21 | CCCN(CCC)S(=O)(=O)c1ccc(C(=O)Nc2nc3c(s2)CCc2ccccc2-3)cc1 |  | 200% [at 10 µM]
22 | O=C(NN1C(=O)c2ccccc2NC1c1ccc([N+](=O)[O-])o1)c1ccc(Br)cc1 (configuration not stated) | active: 6.31 µM | 
23 | C=CCOC(=O)N[C@H](/C(C(=O)OC)=C(\C)NCc1ccccc1)c1cccc(F)c1 |  | 32.6%

Row | Compound | Potency | cytoprotection (ATP increase)
24 | O=C(CN1C(=O)COc2ccccc21)NCCN1CCC(Cc2ccccc2)CC1 |  | 216% [at 10 µM]
25 | Cc1cc(C)nc(NS(=O)(=O)c2ccc(N)cc2)n1 |  | -57.1%
26 | CC(C(O)c1ccc(O)cc1)N1CCC(Cc2ccccc2)CC1 (configuration not stated) | active: 5.01 µM | 
27 | Cc1cc2oc(=O)cc(-c3ccccc3)c2c(C)c1-c1ccc(N(C)C)cc1 |  | -72.9%
28 | CN([C@@H](Cc1ccc(OS(=O)(=O)c2cccc3cnccc23)cc1)C(=O)N1CCN(c2ccccc2)CC1)S(=O)(=O)c1cccc2cnccc12 |  | -108%
29 | Cn1cc(C2=C(c3cn(CCCSC(=N)N)c4ccccc34)C(=O)NC2=O)c2ccccc21 |  | -68%
30 | CC1O[C@@H](O[C@@H]2C(O)C[C@H](O[C@@H]3C(O)C[C@@H](OC4CC[C@@]5(C)C6CC[C@]7(C)C(C8=CC(=O)OC8)CC[C@@]7(O)C6CC[C@@H]5C4)OC3C)OC2C)CC(O)[C@H]1O (some centres not stated) |  | -32.5%
31 | COc1cccc([C@@H]2Oc3ccc(Br)cc3C(=O)[C@H]2OC(=O)NC2CCCC2)c1 |  | 58%
32 | COc1cccc(-c2cc(C(F)(F)F)nc(NCc3ccco3)n2)c1 |  | 336% [at 10 µM]
33 | COC(=O)/C=C/c1ccc(OC(=O)OC)c(OC(=O)OC)c1 |  | 183% [at 10 µM]
34 | Cc1ccc2cccc(OC(=O)/C=C\c3ccccc3)c2n1 | active: 3.16 µM | 
35 | Nc1ccc2oc(-c3ccccc3Cl)cc(=O)c2c1O |  | -47.3%
36 | COc1cccc([C@@H]2Oc3ccc(Br)cc3C(=O)[C@H]2OC(=O)Nc2ccc(OC(F)F)cc2)c1 |  | -20%
37 | C=C1C(=O)OC2CC1C(OC(C)=O)CC(C)=CCCC(C)=CCC[C@@]2(C)O (some centres not stated) |  | -304%
38 | COc1ccc(-c2cc(=O)c3ccccc3[nH]2)cc1 |  | -64.3% [at 96.6 µM]
39 | COc1ccc2c(c1)c(CC(=O)OCC(=O)O)c(C)n2C(=O)c1ccc(Cl)cc1 |  | -43.3%
40 | CCn1c(-c2ccoc2C)n[nH]c1=S | active: 5.62 µM | 
41 | CC(C)(S)[C@H](N)C(=O)O |  | -39.5%
42 | O=C(Nc1nc2ccc(F)cc2s1)c1cccc(S(=O)(=O)N2CCc3ccccc32)c1 |  | 219% [at 10 µM]
43 | COc1cc(OC)c2c(-c3cccc(-c4cccc(N)c4)c3)cc(=O)oc2c1 |  | -209%
44 | Cc1ccc(S(=O)(=O)N2C(=O)/C(=C3\SC(=S)NC3=O)c3ccccc32)cc1 |  | 193% [at 10 µM]
45 | O=C(O)CCCCC1SCC2NC(=O)NC21 (configuration not stated) | active: 12.6 µM | 
46 | c1ccc(CN(CCN(Cc2ccccn2)Cc2ccccn2)Cc2ccccn2)nc1 |  | -150%

Row | Compound | Potency | cytoprotection (ATP increase)
47 | COc1ccc(C(=O)C(CN2CCOCC2)c2ccccc2)cc1F (configuration not stated) | active: 3.16 µM | 
48 | COc1ccc(N2CCN(C(=O)CNS(=O)(=O)c3ccc(C)cc3)CC2)cc1 |  | 39.2%
49 | Cn1c(-c2nc(-c3ccccc3)cs2)nc2ccccc21 |  | 34.8% [at 1.9 µM]
50 | CCOC(=O)c1ccc(N2CN(CCc3ccccc3)CNC2=S)cc1 |  | 236% [at 10 µM]
51 | O=C1NC(=O)c2cc(Nc3ccc(F)cc3)c(Nc3ccc(F)cc3)cc21 |  | -148%
52 | Cc1cccc([C@H]2[C@@H]3C=CC[C@@H](C)[C@@H]3C(=O)N2Cc2ccccc2)c1 |  | -105%
53 | C=CCc1ccc(O)c(-c2cc(CC=C)ccc2O)c1 |  | -124%
54 | N[C@H](CSC(c1ccccc1)(c1ccccc1)c1ccccc1)C(=O)O |  | -81.8%
55 | COc1ccc(-c2nc(-c3ccccc3)no2)c(OC)c1 | active: 5.62 µM | 
56 | O=C(CCCN1CCC(O)(c2ccc(Cl)cc2)CC1)c1ccc(F)cc1 |  | -63.2%
57 | COC(=O)c1c(C)c2c(c(C)c1O)OC(=O)c1c(C)c(Cl)c(O)c(Cl)c1O2 |  | -30.8%
58 | Nc1c(S(=O)(=O)c2cccs2)c2nc3ccccc3nc2n1CC1CCCO1 (configuration not stated) |  | 28.6% [at 10 µM]
59 | Cc1ccc2nc(NC(=O)C3CCN(S(=O)(=O)c4cccs4)CC3)sc2c1 | active: 3.55 µM | 
60 | COc1ccc2c(c1)O[C@@H](c1cccc(C(F)(F)F)c1)[C@H](OC(=O)NCCOc1ccccc1)C2=O |  | -27.2%
61 | CN1CCN(S(=O)C23CC4CC(CC(C4)C2)C3)CC1 (configuration not stated) |  | 315% [at 10 µM]
62 | CN(C)CC/C=C1/c2ccccc2COc2ccccc21 |  | -146%
63 | CN1C(=O)C2(c3ccccc31)C1CCCC=C1C(C#N)=C(N)C2(C#N)C#N (configuration not stated) | active: 20 µM | 
64 | N#CCCCS(=O)(=O)c1nnnn1C1CCCCC1 |  | 50.8%
65 | COc1c(C2=CC(=O)N(C)C2=O)c2c(n1C)C(=O)c1ccccc1C2=O | active: 14.1 µM | 
66 | Cc1ccc(OCC(=O)N2CC(C)OC(C)C2)c([N+](=O)[O-])n1 (configuration not stated) | active: 0.0501 µM | 
67 | COC(=O)c1c(-c2ccccc2)c[nH]c1C |  | 361% [at 10 µM]
68 | O=C(OCC(F)(F)F)[C@H](O)[C@@H](O)C(=O)OCC(F)(F)F |  | 53%
69 | CC(C)(C)c1cc(/C=C(\C#N)C(N)=S)cc(C(C)(C)C)c1O |  | -180%

Row | Compound | Potency | cytoprotection (ATP increase)
70 | COc1ccccc1-c1nnc(Sc2nc([N+](=O)[O-])nn2C)o1 | active: 17.8 µM | 
71 | CC(=O)c1ccc(-c2cccc([C@H]3[C@@H]4C=CC[C@@H](C)[C@@H]4C(=O)N3Cc3ccccc3)c2)cc1 |  | -271%
72 | CC(C)=CCc1c(O)cc2occ(-c3ccc4c(c3)OCO4)c(=O)c2c1O |  | -119%
73 | O=C1OCCN1C(=O)[C@H]1[C@H](c2ccccc2)C(c2ccc(F)cc2)=NN1c1ccc(Br)cc1 |  | -119% [at 40.3 µM]
74 | Cc1cc(O)cc(=O)o1 |  | 31.4%
75 | COc1ccc(OC)c(-c2ccc(C(=O)O)o2)c1 |  | -44.8% [at 96.6 µM]
76 | CC1(OC(=O)c2ccco2)C(=O)C=C2C=C(c3ccc(C#N)cc3)OC=C2C1=O (configuration not stated) |  | 41.1%
77 | Nc1ccccc1C(=O)/C=C/c1ccccc1 |  | 46.6%
78 | Cc1ccc(C(C(=O)NCC2CCCO2)N(Cc2ccccc2)C(=O)c2ccc(-c3ccccc3)[nH]2)o1 (configuration not stated) |  | 302% [at 1.9 µM]
79 | COc1ccc(-c2cccc(-c3cc(=O)oc4cc(OC)c(OC)c(OC)c34)c2)cc1 |  | -153%
80 | CCOC(=O)C1C/C(=C\C(C)=O)c2cccc(C(F)(F)F)c2O1 (configuration not stated) |  | -57.1%
81 | COc1cc(NS(=O)(=O)c2ccc(NC(=O)/C=C/c3ccc([N+](=O)[O-])cc3)cc2)ncn1 |  | -56.9%
82 | CCOc1ccc(-c2nc3ccc(-c4nc5ccc(N6CCN(C)CC6)cc5[nH]4)cc3[nH]2)cc1 |  | -102%
83 | Cc1ccc(-c2c(C)cc3oc(=O)cc(-c4ccccc4)c3c2C)cc1 |  | -49%
84 | CCCNC(=O)c1cc(-c2ccco2)on1 | active: 1.58 µM | 
85 | CC(C)NC(=O)CSc1nnc(-c2ccc(F)cc2)c2ccccc12 | active: 12.6 µM | 
86 | COC(=O)C1C(=O)c2c([nH]c(C(=O)OC3CCCCCC3)c2C)CC1C (configuration not stated) |  | 311% [at 10 µM]
87 | Cc1cc(C)c2nc(SC(C)C#N)cc(C)c2c1 (configuration not stated) | active: 0.631 µM | 
88 | O=C(CSCc1ccc(C(=O)O)cc1)Nc1ccc2ccccc2c1 |  | 190% [at 10 µM]
89 | CC(C)=CCC/C(C)=C/COc1ccc2ccc(=O)oc2c1 |  | 31.2%
90 | CC(C)(C)OC(=O)NCCCCC1=CC2=CC(=O)C(C)(O)C(=O)C2=CO1 (configuration not stated) |  | 37.4%
91 | O=C(NCCCc1ccccc1)c1cnc2n(c1=O)CCS2 |  | 263% [at 10 µM]
92 | O=C(Nc1cccc(O)c1)c1cccc(S(=O)(=O)N2CCCC2)c1 | active: 2.82 µM | 

Retrieved one by one from the entries so far (3):
Row | Compound | Potency | cytoprotection (ATP increase)
76 | CC1(OC(=O)c2ccco2)C(=O)C=C2C=C(c3ccc(C#N)cc3)OC=C2C1=O (configuration not stated) |  | 41.1%
71 | CC(=O)c1ccc(-c2cccc([C@H]3[C@@H]4C=CC[C@@H](C)[C@@H]4C(=O)N3Cc3ccccc3)c2)cc1 |  | -271%
83 | Cc1ccc(-c2c(C)cc3oc(=O)cc(-c4ccccc4)c3c2C)cc1 |  | -49%
